Measurements reported in PubChem BioAssay AID540275 (National Center for Advancing Translational Sciences (NCATS), 2011).
Several values for one entry are separate records, joined by “and”; a condition that tells them apart may be missing. Identical values can stand only once. Out of some 320,000 compounds screened, about 620 (0.19%) were called active. This list was built around the results that the source calls inconclusive (neither active nor inactive); the mix of calls is not that of the screen. No stated cut-off is given here; in the data, active means activation above about 80%; inconclusive means between about 30% and that limit; inactive means weaker than that.

Protein sequences, listed by entry. Tags and fused reporters are not part of them.
UniProt Q8NER1, whole entry, looked up: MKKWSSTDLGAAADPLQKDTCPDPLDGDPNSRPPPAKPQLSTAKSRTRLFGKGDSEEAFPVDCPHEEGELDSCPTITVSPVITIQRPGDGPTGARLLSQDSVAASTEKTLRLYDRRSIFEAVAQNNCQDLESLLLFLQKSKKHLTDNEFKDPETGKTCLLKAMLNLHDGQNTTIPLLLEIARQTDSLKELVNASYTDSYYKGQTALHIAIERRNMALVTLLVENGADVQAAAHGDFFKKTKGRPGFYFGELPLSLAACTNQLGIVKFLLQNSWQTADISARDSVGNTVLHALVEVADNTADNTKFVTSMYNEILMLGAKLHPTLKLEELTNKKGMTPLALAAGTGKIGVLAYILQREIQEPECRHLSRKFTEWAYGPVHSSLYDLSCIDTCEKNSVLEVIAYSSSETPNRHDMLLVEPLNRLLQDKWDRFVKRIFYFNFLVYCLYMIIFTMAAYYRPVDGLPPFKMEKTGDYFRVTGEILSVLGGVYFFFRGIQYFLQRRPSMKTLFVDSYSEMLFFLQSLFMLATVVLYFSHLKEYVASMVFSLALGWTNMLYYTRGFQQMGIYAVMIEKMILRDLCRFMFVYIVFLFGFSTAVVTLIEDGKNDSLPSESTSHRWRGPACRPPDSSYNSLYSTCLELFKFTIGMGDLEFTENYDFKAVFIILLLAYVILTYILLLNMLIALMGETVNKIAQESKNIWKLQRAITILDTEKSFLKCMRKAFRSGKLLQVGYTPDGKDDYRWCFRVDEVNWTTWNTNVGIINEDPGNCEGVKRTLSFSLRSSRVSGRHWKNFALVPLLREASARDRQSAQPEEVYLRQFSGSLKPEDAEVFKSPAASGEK

The molecules below were run against Transient receptor potential cation channel subfamily V member 1 (Homo sapiens) (UniProt Q8NER1) (assay: HTS Assay for Compounds that Act as Agonists of the Vanilloid Receptor 1). Settings: TRPV1-expressing cells, Fluo-8 calcium influx, agonist mode; at 8.33 µM, active compounds read high.
In short: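 Cells expressing TRPV1 were dye-loaded with Fluo-8 and read kinetically: 10 s baseline, 3 min after compound (agonist portion), then 2 min after EC20 capsaicin (allosteric enhancer portion). Calcium-bound dye fluorescence at 480/520 nm.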
Further: 0% is about no effect.

SMILES	activation
Nc1nonc1-n1nnc(C(=O)N/N=C/c2ccncc2)c1CSc1ccc(Cl)cc1	inconclusive: 36.7%
O=C(COC(=O)c1cccc(C(F)(F)F)c1)NCc1ccccc1	inconclusive: 54.8%
COc1cccc(CNC(=O)Cc2ccc(Br)cc2)c1	inconclusive: 30.8%
Cc1cc(O)c(C2=Nc3ccccc3SC(c3ccc(Cl)cc3)C2)c(=O)o1 (stereo not given)	inconclusive: 52.9%
C=C(C)COc1ccc2c(C)c(CC(=O)OC)c(=O)oc2c1C	inconclusive: 45.4%
COc1cccc(C(=O)N/N=C(\C)CC(=O)Nc2ccc(N(C)C)cc2)c1	inactive: 0.912%
COc1cccc(COC(=O)CCNC(=O)c2ccc(Br)cc2)c1OC	inconclusive: 45.7%
CC(=O)c1ccc(N2CCN(C(=S)Nc3ccc(Oc4ccccc4)cc3)CC2)cc1	inconclusive: 63.1%
O=C(NNc1ccnc2cc(Cl)ccc12)C1CCCCC1	inconclusive: 58%
CCN(CC)C(=O)c1ccc(COc2ccc(Cl)c(C)c2)o1	inactive: 5.24%
CCn1nccc1C(=O)Nc1ccc(C(=O)OC(C)C)cc1	inconclusive: 43.9%
O=C(Nc1ccc(N2CCN(C(=O)c3ccccc3)CC2)cc1)c1ccc2c(c1)OCCO2	inactive: 11.2%
CCOCCCn1c(SCC(=O)Nc2cccc(OC)c2)nc2ccccc2c1=O	inconclusive: 41.4%
CCOC(=O)CSc1nn(-c2ccccc2)c(=S)s1	inconclusive: 34.1%
CCOc1ccc(OCCC(=O)OCC(=O)NC2CCCCC2)cc1	inactive: 11.3%
Cc1[nH]c2ccccc2c1/C=N/NC(=O)c1cc(-c2ccccc2)n[nH]1	inactive: -0.305%
O=C1C(C=Nc2ccc(F)cc2)=C(O)c2ccccc21	inactive: 4.05%
Cc1cccc(N(Cc2ccccc2)C(=O)CN2C(=O)NC3(CCCCC3C)C2=O)c1 (stereo not given)	inconclusive: 34.3%
C/C(=N\NC(=O)c1ccc(-c2ccccc2)cc1)c1cccc(N)c1	inactive: 2.89%
CN1C[C@H](C(=O)N[C@]2(C)O[C@@]3(O)[C@@H]4CCCN4C(=O)[C@H](Cc4ccccc4)N3C2=O)CC2c3cccc4[nH]cc(c34)C[C@H]21 (stereo not given in full)	inactive: 1.05% and inactive: -2.74%
COc1ccccc1NC(=O)N1CCN(c2ccnc3cc(Cl)ccc23)CC1	inactive: 0.26%
c1ccc2c(c1)ncn2CCCOc1ccc2c(c1)CCC2	inconclusive: 30.9%
COc1ccc(/C=C(\C#N)C(=O)NCC2CCCO2)cc1OC (stereo not given)	inactive: 7.25%

SMILES	activation
COc1cc(C(Nc2ccc3c(c2)OCO3)C(=O)NC2CCCCC2)cc(OC)c1OC (stereo not given)	inactive: 14.9%
CC(C)CCNc1ncnc2c1nnn2Cc1ccccc1Cl	inactive: 26.6%
N#C/C(=C\c1ccc(OCCN2CCOCC2)cc1)C(=O)Nc1ccccc1	inactive: 7.55%
O=C(CCSCCc1ccccn1)Nc1ccc(Cc2ccncc2)cc1	inconclusive: 44.2%
O=C(NCC1CC1)c1ccc2c3n(nc2c1)-c1ccccc1CO3	inactive: 23%
O=C(CN1CCN(Cc2ccccc2F)C1=O)NC1CCCC1	inactive: -2.93%
Cc1ccc(S(=O)(=O)N2CCN(c3ccccc3)CC2)cc1C(N)=O	inactive: -3.54%
Cc1ccc2c(c1)cc(CN(Cc1ccc3c(c1)OCO3)C(=O)c1cnccn1)c1nnnn12	inactive: 12.5%
COc1ccc(C2=C(Nc3ccc(F)cc3)c3ccccc3C2=O)cc1	inconclusive: 51.7%
C/C(=N\NC(=O)c1cc(Br)ccc1O)c1cccc(NC(=O)c2ccccc2F)c1	inactive: -2.18%
O=C(NCc1ccccc1Cl)c1ccc(S(=O)(=O)N2CCCC2)cc1	inconclusive: 35.8%
Cc1ccc(C(=O)NCCc2ccc(F)cc2)s1	inconclusive: 63.9%
COc1cc(-c2nnc(SCC(=O)/C(C#N)=C(\C)N)o2)cc(OC)c1OC	inactive: 0.533%
CCC(=O)Nc1ccc(Cl)c(NC(=S)NC(=O)c2ccco2)c1	inactive: -4.12%
CC1CCN(C(=O)COc2cccc3c2CCN(Cc2ccccc2)C3=O)CC1	inconclusive: 50.7%
O=C1C=C(c2ccc(F)c(Cl)c2)C[C@@H](c2ccc(F)cc2)C1	inconclusive: 47.2%
S=C(c1ccc(Cl)cc1)N1CCN(Cc2ccccc2)CC1	inconclusive: 33%
C=CCOC(=O)N1CCN(c2cccc(C(F)(F)F)c2)CC1	inconclusive: 43.6%
CC(=O)c1ccc(N2CCN(S(=O)(=O)c3ccc4c(c3)CC(=O)N4)CC2)cc1	inactive: -4.86%
O=C(Nc1cccnc1)c1ccc(COc2ccccc2Br)cc1	inconclusive: 67%
CCC(C)(C)NC(=O)C(c1ccc(C)cc1)N(Cc1cccs1)C(=O)c1ccc2c(c1)OCCO2 (stereo not given)	inconclusive: 60.8%
COc1cc(CNc2ccc3[nH]c(=O)[nH]c3c2)cc(Br)c1OCC(=O)NC(C)(C)C	inconclusive: 61.4%
Cc1cc(Oc2nc3ccccn3c(=O)c2/C=C(\C#N)C(=O)NC2CCS(=O)(=O)C2)ccc1Cl (stereo not given)	inactive: 1.93%

SMILES	activation
CCN(CC)c1ccc(NC(=O)Nc2cccc(C(C)=O)c2)cc1	inconclusive: 60.6%
O=C(Cc1ccccc1F)Nc1ccc(SC(F)F)cc1	inconclusive: 75%
O=C(Nc1nccs1)c1cc([N+](=O)[O-])ccc1Cl	inactive: 1.07%
Cn1c2ccccc2c(=O)c2ccc(C#Cc3ccc(N)cc3)cc21	inactive: 1.8%
CC(C)(C)C(=O)Nc1nc(NC(=O)C(C)(C)C)nc(-c2ccccc2Cl)n1	inconclusive: 65.8%
CCN(CC)c1ccc2cc(-c3nnc(-c4ccncc4)o3)c(=O)oc2c1	active: 107%
COc1ccc(-c2oc(NC(=O)CSc3ncn[nH]3)c(C#N)c2-c2ccc(OC)cc2)cc1	inconclusive: 43.2%
O=C(Nc1ccc2ncccc2c1)c1ccccc1	inactive: -4.65%
O=C(NC(=O)c1ccncc1)NC(c1ccccc1)c1ccccc1	inconclusive: 41.2%
Cc1ccc(N=Cc2c(O)n(-c3cc(Cl)ccc3N3CCOCC3)c(=O)c3ccccc23)cc1C	inconclusive: 44.1%
COc1ccc2sc(NC(=O)c3ccco3)nc2c1	inconclusive: 37.9%
CCCSC1=C(C#N)C(c2ccccc2C)CC(=O)N1 (stereo not given)	inactive: 14.5%
COc1cccc(CNC(=O)C2CCCN(S(=O)(=O)N3CC(C)CC(C)C3)C2)c1 (stereo not given)	inconclusive: 68.5%
CCc1ccc(NC(=O)C(CC)c2ccccc2)cc1 (stereo not given)	inconclusive: 40.7%
CC(C)(C)c1ccc(OCC(O)CSc2ncn[nH]2)cc1 (stereo not given)	inconclusive: 62.1%
Cc1ccc(C(=O)Nc2nc3ccccc3[nH]2)cc1	inconclusive: 35.5%
C/C(=N\NC(=O)c1ccco1)c1cccc2ccccc12	inactive: -0.318%
O=C(CN1CCN(S(=O)(=O)c2ccc(Br)cc2)CC1)Nc1ccc(F)cc1F	inactive: -0.406%
CCN1C(=O)[C@@H]2[C@@H](c3ccc(-c4ccc(Cl)c(Cl)c4)c(OC)c3)N3CCC[C@@]3(C(=O)OC)[C@@H]2C1=O	inconclusive: 32.5%
CNC(=O)COC(=O)c1cc2c(s1)CCCC2	inconclusive: 42%
Cn1c(=O)n(Cc2ccccc2)c(=O)c2c1nc1n2CCCN1CCc1ccccc1	inactive: 6.36%
O=C(N/N=C/c1cccc(OC2CSC2)c1)c1ccccc1O	inconclusive: 40.3%
S=C(Nc1ccc(Oc2ccc(NC(=S)NC3CCCCC3)cc2)cc1)NC1CCCCC1	inconclusive: 31.3%

SMILES	activation
Cc1ccc(NC(=O)c2cccc3cccnc23)cc1	inconclusive: 36.3%
Cc1ccc(-c2cc(=O)c3cc(F)ccc3[nH]2)cc1	inactive: 26.9%
O=C(c1ccco1)N1CCCC(Nc2ccc3c(c2)OCCO3)C1 (stereo not given)	inconclusive: 37.9%
COc1ccc(N2CCN(C(=O)c3ccc(F)cc3)CC2)c([N+](=O)[O-])c1	inconclusive: 39.1%
Cc1c(C(=O)N2CCCC(C)C2)sc2ncnc(N3CCCCC3C)c12 (stereo not given)	inconclusive: 44.6%
COCCn1c(SCC(=O)Nc2sccc2C(N)=O)nc2cc(Cl)ccc2c1=O	inactive: -2.78%
S=c1[nH]nc(C2CCCCC2)n1/N=C/c1ccc(Br)s1	inconclusive: 51%
COc1ccc(C(=O)Nn2c(SCC(=O)NC3CCCC3)nc3ccccc3c2=O)cc1	inconclusive: 60%
O=C(NC1CCCCC1)c1cc(-c2cccs2)on1	inactive: 3.26%
O=[N+]([O-])c1ccc(N2CCCC2)nc1N1CCCC1	inconclusive: 37.5%
O=[N+]([O-])c1cccc2c(Cl)ccnc12	inconclusive: 51.1%
O=C(c1ccccc1)N1CCN(Cc2cccc(Oc3ccccc3)c2)CC1	inconclusive: 36%
O=C(NCc1ccccc1Cl)c1csc2c1CCCCC2	inconclusive: 55.7%
Cc1ccc(N=Cc2sc(O)c3ccccc23)cc1	inconclusive: 58%
CC(C)C[C@H]1CN=C(Nc2ccccc2)N1CCC1CCCCC1	inactive: 3.85%
O=C(COC(=O)C1=COCCO1)NC1CCCCCCC1	inactive: 0.581%
Fc1cc(F)c(C2SCCN2C(=S)Nc2cccc(C(F)(F)F)c2)c(F)c1 (stereo not given)	inconclusive: 31.3%
Cc1ccsc1C(=O)N/N=C/C=C/c1ccccc1[N+](=O)[O-]	inconclusive: 32.2%
CCN(CC)C(=O)Oc1cc2c(-c3cc4cccc(OC)c4o3)cc(=O)oc2cc1C	inconclusive: 43.2%
COc1cc(/C=C(/C#N)C(=O)Nc2ccc(C)cc2)ccc1Oc1nc(Cl)ncc1F	inactive: 18.3%
COc1ccccc1C(=O)Nc1ccc(S(=O)(=O)N2CCCC2)cc1	inconclusive: 38.7%
